Results deposited as PubChem BioAssay AID743454 (Peter MacCallum Cancer Centre, 2014)

- Test: 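Genes whose loss kills vorinostat-resistant colon cancer cells under vorinostat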 (primary screen)
- System: human HCT116-VR colon cancer cells, selected for vorinostat resistance
- Knock-down reagent: siRNA pool against human genes, 40 nM siRNA pool
- Duration: vorinostat for 24 h, read-out about 72 h after transfection
- Treatment: vorinostat at 2.5 µM final
- Read-out: 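Two measures, CellTiter-Fluor viability and luminescent caspase 3/7 activity, each as fold change against same-plate mock wells, mean of duplicates, then screen-wide robust z-score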
- Scale: viability robust z-score: higher = more viable cells than screen typical; caspase robust z-score: higher = more caspase 3/7 activity than screen typical
- Hit rule: 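a knock-down is a hit when classed RV1 or RV2 for lowered viability, or CA1 or CA2 for caspase activation; those lethal without drug were dropped; hits were retested singly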
The whole screen tested about 18,000 reagents; below is a part drawn at random. 450 of all reagents (2.5%) were called active. 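Single biological run; no consistent viability z cut-off exists, so the class columns, not z-scores, define the calls.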 A number with no mark means an inactive call.

gene | viability hit class | caspase hit class | viability robust z-score | caspase robust z-score
ZNF600 | no change | no change | -0.12 | 1.26
SF3A1 | no change | no change | -3.91 | 1.76
MAPKAP1 | no change | no change | 0.66 | 0.36
JTB | no change | no change | 0.02 | 0.01
ZNF335 | no change | no change | -0.52 | -0.16
KIN | no change | no change | 0.54 | 0.18
CIB1 | no change | no change | -0.05 | -1.25
NXT2 | no change | no change | 0.26 | 0.06
TET1 | no change | no change | 0.08 | -0.08

As entered above:
KIN, caspase hit class: no change
Result for NXT2 in “viability robust z-score”: 0.26

Additional records follow:
gene | viability hit class | caspase hit class | viability robust z-score | caspase robust z-score
MIR1915HG | no change | no change | 0.42 | 0.06
ARL9 | no change | no change | 0.96 | 0.18
CD200 | no change | no change | -0.64 | 0.02
SNRPD2 | no change | no change | -3.92 | 0.6
CCDC127 | no change | no change | 1.17 | -0.34
SOX10 | no change | no change | 0.38 | 0.22
RNF169 | no change | no change | 0.92 | 0.03
ZNF619 | no change | no change | -0.28 | -0.04
NRARP | no change | no change | 0.12 | 0.92
LRRC7 | no change | no change | 1.29 | -0.73
EEF1A2 | no change | no change | 0.86 | -0.32
MICOS13 | no change | no change | -0.48 | -0.8
UTP18 | no change | no change | -1.86 | -0.04
ALOX12B | no change | no change | 0.3 | -0.99
